According to paper PMC4368784:
These are yes or no findings as the source states them, for the method shown. In cells and extracts the contact can be indirect. Some entries that bind do so weakly or less than the wild type. Sequences can lack the tags named with a protein.

T1: DIM-7-3xFLAG (N. crassa) (UniProt Q1K7K7)
T1 sequence: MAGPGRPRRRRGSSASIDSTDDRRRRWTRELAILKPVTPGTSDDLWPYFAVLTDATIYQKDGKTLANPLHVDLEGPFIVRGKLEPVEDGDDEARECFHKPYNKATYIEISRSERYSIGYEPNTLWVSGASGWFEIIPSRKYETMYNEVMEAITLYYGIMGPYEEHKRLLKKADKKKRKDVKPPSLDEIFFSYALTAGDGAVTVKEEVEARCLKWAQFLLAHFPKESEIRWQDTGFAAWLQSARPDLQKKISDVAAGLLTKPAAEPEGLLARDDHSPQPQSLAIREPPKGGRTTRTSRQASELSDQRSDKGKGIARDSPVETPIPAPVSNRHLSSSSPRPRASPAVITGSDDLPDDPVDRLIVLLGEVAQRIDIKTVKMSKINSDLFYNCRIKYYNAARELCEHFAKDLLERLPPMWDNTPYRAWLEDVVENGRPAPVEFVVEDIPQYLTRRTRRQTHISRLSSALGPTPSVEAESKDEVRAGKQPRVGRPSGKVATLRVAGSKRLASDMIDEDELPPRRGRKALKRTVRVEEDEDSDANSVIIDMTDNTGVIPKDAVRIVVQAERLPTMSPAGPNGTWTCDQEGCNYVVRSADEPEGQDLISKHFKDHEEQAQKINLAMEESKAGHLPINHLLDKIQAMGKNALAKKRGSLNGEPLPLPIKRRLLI

T2: DIM-9-3xFLAG (N. crassa) (UniProt Q7RVP2)
T2 sequence: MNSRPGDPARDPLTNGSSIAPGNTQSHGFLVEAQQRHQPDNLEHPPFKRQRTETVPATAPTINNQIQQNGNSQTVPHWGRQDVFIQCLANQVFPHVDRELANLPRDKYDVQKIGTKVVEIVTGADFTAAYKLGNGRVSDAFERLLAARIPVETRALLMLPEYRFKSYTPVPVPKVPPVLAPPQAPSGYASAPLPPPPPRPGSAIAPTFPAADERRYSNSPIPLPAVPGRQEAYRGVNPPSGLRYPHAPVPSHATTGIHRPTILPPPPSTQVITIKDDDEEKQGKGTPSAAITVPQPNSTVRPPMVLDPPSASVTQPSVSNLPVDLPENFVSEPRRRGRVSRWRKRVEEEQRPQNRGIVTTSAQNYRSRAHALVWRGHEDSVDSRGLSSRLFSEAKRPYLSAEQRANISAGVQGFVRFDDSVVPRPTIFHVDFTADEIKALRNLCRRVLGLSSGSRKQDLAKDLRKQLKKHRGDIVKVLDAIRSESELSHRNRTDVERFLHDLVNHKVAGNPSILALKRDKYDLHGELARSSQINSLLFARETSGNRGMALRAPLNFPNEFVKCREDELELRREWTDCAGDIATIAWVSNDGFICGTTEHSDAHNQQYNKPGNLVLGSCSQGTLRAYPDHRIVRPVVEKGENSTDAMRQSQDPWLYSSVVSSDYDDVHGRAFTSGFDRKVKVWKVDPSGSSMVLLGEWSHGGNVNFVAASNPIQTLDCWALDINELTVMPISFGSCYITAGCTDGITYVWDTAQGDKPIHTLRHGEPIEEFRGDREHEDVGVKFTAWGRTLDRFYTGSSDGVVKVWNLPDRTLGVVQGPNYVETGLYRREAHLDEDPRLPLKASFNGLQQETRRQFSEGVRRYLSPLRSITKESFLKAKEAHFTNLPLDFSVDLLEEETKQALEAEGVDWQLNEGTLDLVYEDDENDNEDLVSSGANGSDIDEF

B1: DIM-5 (enzyme, UniProt Q8X225 1-331)
chain: MEKAFRPHFFNHGKPDANPKEKKNCHWCQIRSFATHAQLPISIVNREDDAFLNPNFRFIDHSIIGKNVPVADQSFRVGCSCASDEECMYSTCQCLDEMAPDSDEEADPYTRKKRFAYYSQGAKKGLLRDRVLQSQEPIYECHQGCACSKDCPNRVVERGRTVPLQIFRTKDRGWGVKCPVNIKRGQFVDRYLGEIITSEEADRRRAESTIARRKDVYLFALDKFSDPDSLDPLLAGQPLEVDGEYMSGPTRFINHSCDPNMAIFARVGDHADKHIHDLALFAIKDIPKGTELTFDYVNGLTGLESDAHDPSKISEMTKCLCGTAKCRGYLW
B2: DIM-9-3xHA (protein, UniProt Q7RVP2 1-943)
chain: T2 sequence

How the values were obtained:
[1] = target: T1, DIM-7-3xFLAG (N. crassa); experiment: co-IP; anti-FLAG immunoprecipitation of 3xFLAG-tagged DCDC members from nuclei of dim-3+ (WT) and dim-3 N. crassa strains; partner detected by western blot and normalised to bait level
[2] = target: T2, DIM-9-3xFLAG (N. crassa); experiment: as above

Binder	binding [1]	binding [2]
B1	binds	binds
B2	binds	
